Assay results: PubChem BioAssay AID2685 (National Center for Advancing Translational Sciences (NCATS), 2010)
This is one part of the list. These are further read-outs of the screen, such as a control signal, another cell line or another target. No call is given for them. The list favours compounds with an active or inconclusive main result. Potencies come from curve fits of mixed quality, noted in brackets.

Assay: qHTS Assay for Lipid Storage Modulators in Drosophila S3 Cells;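 as to cell number change: cells counted by Cell Tracker Red CMTPX staining in the red channel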
Conditions: BODIPY lipid droplet fluorescence, 18-24 h; for cell number change: measured here: cell count max response, cells fed with added oleic acid
In short: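 Laser-scanning cytometry quantifies lipid droplet accumulation (500–530 nm total intensity; droplet/cell object ratio) in oleic acid-fed (400 uM added) Drosophila S3 cells treated with a concentration series. 20 uM Triacsin C defined 100% inhibition.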

[1] = measured here: cell number channel AC50, cells fed with added oleic acid
[2] = measured here: lipid fluorescence (Fed channel) AC50, cells fed with added oleic acid

SMILES	AC50 [1]	cell number change [%]	AC50 [2]
CCc1ccc(S(=O)(=O)NCCc2cn3ccc(C)cc3n2)s1	651 nM [rising, full curve, poor fit]		
CC(CNC(=O)COC(=O)c1ccco1)c1ccccc1 (stereo not given)		-8.77	16400 nM [falling, single point]
COCCNC(=S)N/N=C(\C)c1ccc(-n2ccnc2)cc1	1300 nM [rising, single point]	-1.97	25900 nM [rising, partial curve]
O=C(COC(=O)c1ccc2[nH]c3c(c2c1)CCCC3)Nc1ccccc1	29100 nM [falling, single point]	-35.3	
CC(=O)Nc1cccc(C(=O)/C=C/c2ccc(N(C)C)cc2)c1	20600 nM [rising, partial curve]	98.9	16400 nM [rising, single point]
CC1(C)C(=O)Nc2ccccc2N1C(=O)CSc1nnc2ccccn12		-51.9	
CCc1nnc(NC(=O)C(NS(=O)(=O)c2ccc3c(c2)OCCO3)C(C)C)s1 (stereo not given)	103 nM [falling, full curve, poor fit]	-17.5	
N#Cc1ccc(Oc2ccc(/C=N/O)cn2)cc1		-14.2	1160 nM [falling, full curve]
O=C(OCc1ccc(COC(=O)c2cccnc2Cl)cc1)c1cccnc1Cl			291 nM [falling, single point]
COc1ccc(CN(C2CCCC2)S(=O)(=O)c2ccc(-n3cnnn3)cc2)cc1		-16.7	4.61 nM [rising, full curve, poor fit]
CCSc1nnc(NC(=O)CSc2nnc(CNC(=O)c3ccccc3F)o2)s1		7.44	
O=C(c1cc2ccccc2o1)N1CCN(CCOc2ccccc2)CC1			5.8 nM [falling, full curve, poor fit]
CC(=O)c1c(OCC(=O)O)ccc2c(C)cc(=O)oc12	820 nM [falling, partial curve, poor fit]	-7.37	184 nM [falling, full curve, poor fit]
OCc1cn(Cc2ccc(O)c3ncccc23)cn1		20.8	18400 nM [rising, single point]
COc1ccc(NC(=O)C2CCC(=O)N2S(=O)(=O)c2ccc(C)cc2)c(OC)c1 (stereo not given)	6510 nM [falling, single point]		2060 nM [falling, partial curve, poor fit]
CCCOc1cccc(C2/C(=C(/O)c3ccc(F)cc3)C(=O)C(=O)N2CCN(C)C)c1 (stereo not given)		-0.816	
Cc1ccc(NC(=O)c2ccccc2N(C)S(C)(=O)=O)cc1C	2590 nM [rising, single point]		

Part of the list above, bar-delimited.
SMILES | AC50 [1] | cell number change [%] | AC50 [2]
CC1(C)C(=O)Nc2ccccc2N1C(=O)CSc1nnc2ccccn12 |  | -51.9 | 
CCc1nnc(NC(=O)C(NS(=O)(=O)c2ccc3c(c2)OCCO3)C(C)C)s1 (stereo not given) | 103 nM [falling, full curve, poor fit] | -17.5 | 
